From PubChem BioAssay AID1487 (National Center for Advancing Translational Sciences (NCATS), 2009)
The list shows a part of the results. Shown are side measurements of this screen, not its main read-out; they come without a call. The list favours compounds with an active or inconclusive main result. Potencies come from curve fits of mixed quality, noted in brackets.

Assay: qHTS Assay for Modulators of Lamin A Splicing
Conditions: HeLa LMNA splicing GFP/RFP minigene ratio, 48 h
Summary of the method: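 S3 HeLa cells stably expressing lamin A-EGFP splicing minigene plus DsRed2, 600 cells/well, 48 h compound exposure at 37C. Laser-scanning cytometry; analysed as GFP (500-530 nm)/RFP (575-640 nm) total intensity ratio; 0.5% DMSO vehicle.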

[1] = measured here: GFP splicing reporter channel
[2] = measured here: RFP viability control channel

Structure (SMILES) | AC50 [1] | AC50 [2]
CN1CCC(N(C)C(=S)Nc2ccc(SC(F)F)cc2)CC1 | 12.6 µM [rising, single point] | 12.6 µM [rising, partial curve]
CCn1c(SCc2nc3ccccc3nc2C)nnc1-c1cccs1 |  | 35.5 µM [rising, single point]
O=C(NO)c1ccccc1C(F)(F)F | 35.5 µM [falling, single point] | 35.5 µM [falling, single point]
Cc1cc(S(=O)(=O)Nc2cccc(-c3ccc(N4CCOCC4)nn3)c2)c(C)cc1Cl | 0.0158 µM [falling, full curve, poor fit] | 
CC1CC(C)CN(C(=S)Nc2ccc(OC(F)F)cc2)C1 (configuration not stated) | 20 µM [rising, single point] | 25.1 µM [rising, partial curve]
CC(=O)Nc1ccc(OCC(O)Cn2ccnc2)cc1 (configuration not stated) | 0.02 µM [rising, full curve, poor fit] | 
CCCC1O[C@@H]2C[C@H]3[C@@H]4CCC5=CC(=O)C=C[C@]5(C)[C@H]4[C@@H](O)C[C@]3(C)[C@]2(C(=O)CO)O1 (some centres not stated) | 10 µM [rising, partial curve, poor fit] | 
Cc1ccc(C)c(CN2C(=O)c3ccccc3Sc3ccc(C(=O)NCc4ccco4)cc32)c1 | 1.26 µM [falling, partial curve, poor fit] | 
COc1ccc2c(c1)c(=O)c(C(=O)c1ccccc1)cn2Cc1ccc(C)cc1 |  | 12.6 µM [rising, single point]
Cc1ccc(/C=C/C(=O)c2c(C)nc3ccccn23)cc1 | 11.2 µM [falling, partial curve] | 35.5 µM [falling, single point]
COC(=O)CCCC1=CC2=C(c3ccccc3)C(=O)C(C)(OC(=O)C3CCCC3)C(=O)C2=CN1CC(C)C (configuration not stated) | 2 µM [rising, partial curve] | 5.62 µM [rising, single point]
Cc1noc(NS(=O)(=O)c2ccc(N/C=C\C(=O)c3ccc(Br)cc3)cc2)c1C |  | 0.0224 µM [falling, full curve, poor fit]
CCN1CCN(S(=O)(=O)c2ccc(Oc3ccccc3OC)cc2)CC1 |  | 0.00316 µM [rising, full curve]
CCN(Cc1ccccc1)C(=O)Cn1c(=O)oc2ccccc21 | 0.178 µM [rising, full curve, poor fit] | 
O=C(NC1CC2CCCC(C1)N2S(=O)(=O)c1ccccc1)c1ccccc1 (configuration not stated) | 14.1 µM [rising, partial curve] | 14.1 µM [rising, partial curve]
CN(C)/N=C/c1ccc(Sc2ccc([N+](=O)[O-])cc2[N+](=O)[O-])o1 |  | 31.6 µM [rising, single point]
C=CCn1c(C)cc(C(=O)CSc2nnc(NCc3ccccc3)s2)c1C | 22.4 µM [rising, partial curve, poor fit] | 0.355 µM [rising, partial curve]
CCOc1ccc2c(c1)s/c(=N\S(=O)(=O)c1ccc(OC)cc1)n2C(F)F | 8.91 µM [rising, partial curve] | 12.6 µM [rising, partial curve]

Structure (SMILES) | AC50 [1] | AC50 [2]
CCCCCCCOC(=O)C[N+](C)(C)CCOC1CC2CCC1(C)C2(C)C (configuration not stated) |  | 14.1 µM [rising, single point]
CCCCn1c(Oc2cccc(C(=O)OC)c2)nc2c1c(=O)n(C)c(=O)n2C |  | 0.01 µM [falling, full curve, poor fit]
COc1cccc(NC(=O)CSc2nc3c(sc4ccccc43)c(=O)n2CCN(C)C)c1 |  | 20 µM [falling, partial curve, poor fit]
CN1c2ccsc2C(O)=C(C(=S)Nc2ccc(F)c(Cl)c2)S1(=O)=O |  | 11.2 µM [rising, partial curve]
CSc1nc(Cl)c(Cc2ccc(OCC(C)C)cc2)c(N2CCOCC2)n1 |  | 20 µM [rising, single point]
CCC(C(=O)OCC(=O)Nc1cc(OC)ccc1OC)c1ccccc1 (configuration not stated) | 0.00447 µM [falling, full curve, poor fit] | 
CCN1C(=O)/C(=C\c2ccc(-c3ccc([N+](=O)[O-])cc3OC)o2)SC1=Nc1cccc(C(=O)O)c1 | 35.5 µM [falling, single point] | 
C=CCSc1nc2sc3c(c2c(=O)[nH]1)CCC3 | 35.5 µM [rising, partial curve, poor fit] | 12.6 µM [rising, partial curve]
COCc1cc(=O)[nH]c(Nc2nc3ccc(C)cc3o2)n1 | 5.62 µM [rising, full curve] | 3.98 µM [rising, full curve]
O=C(/C=C/c1ccc(F)cc1)NC(=S)Nc1ccccc1C(=O)NC1CCCCC1 | 14.1 µM [falling, single point] | 14.1 µM [falling, single point]
Cc1nc(N2CCC(C(N)=O)CC2)c2c(-c3cccs3)csc2n1 |  | 5.62 µM [falling, partial curve, poor fit]
O=C(Oc1ccc(Nc2ncnc3ccccc23)cc1)c1cccnc1 | 31.6 µM [falling, partial curve] | 
Cc1cc(C)c2nc(C(F)(F)F)nc(N3CC(C)OC(C)C3)c2c1 (configuration not stated) | 31.6 µM [rising, single point] | 
COc1cc(Br)cc(CN2CCN(C/C=C/c3ccccc3)CC2)c1O | 31.6 µM [rising, single point] | 31.6 µM [rising, single point]
CCOc1cc(CNC(=O)c2ccc(NC(=O)c3nsc4ccccc34)cc2)ccc1OC |  | 3.16 µM [falling, full curve, poor fit]
O=C1C2CC=CCC2C(=O)N1c1ccc(Cc2ccncc2)cc1 (configuration not stated) |  | 6.31 µM [rising, full curve, poor fit]
COc1ccccc1N1CCN(C(=O)COc2ccc(Cl)cc2)CC1 |  | 35.5 µM [rising, single point]

3 records drawn at random from those above:
Structure (SMILES) | AC50 [1] | AC50 [2]
O=C(/C=C/c1ccc(F)cc1)NC(=S)Nc1ccccc1C(=O)NC1CCCCC1 | 14.1 µM [falling, single point] | 14.1 µM [falling, single point]
O=C(Oc1ccc(Nc2ncnc3ccccc23)cc1)c1cccnc1 | 31.6 µM [falling, partial curve] | 
CCCCn1c(Oc2cccc(C(=O)OC)c2)nc2c1c(=O)n(C)c(=O)n2C |  | 0.01 µM [falling, full curve, poor fit]
